# Where a name gives a salt, the structure may show the parent alone. ± gives the standard deviation of the averaged measurements. The list shows a part of the results. These are raw signals, not scaled to a control.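 One yeast strain harboring four plasmids, each bearing a fluorescent protein plus an amino-acid or uracil synthesis gene, founds the community. Random loss of plasmids produces mixed prototroph and auxotroph subpopulations. Cells were fixed, then counted with automated confocal fluorescence imaging, with DMSO-treated wells as vehicle reference.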 Numbered stars: 1 amine (or outer) side, 2 acyl side, 3 side chain; on linkers, the order of the positions; unused ones are H or OH. Bridge positions count the residues as written; N and C are the ends. Square brackets hold non-standard residues; d marks the D form. Peptide text beside a SMILES is read from it. * marks the point of attachment. ξ: configuration not given here. X1 = N=C1NCCC([C@H](N[*:1])C(=O)[*:2])N1; ΔAla(Z-3-ureido) = NC(=O)N/C=C(\N)C(=O)O; ξβ3hOrn = NCCCC(N)CC(=O)*; Dap = NC[C@H](N)C(=O)O
# System: Saccharomyces cerevisiae BY4741 SeMeCo community
# Test: imaged cell count per well (cells); higher = more cells
# Conditions: 10 µM; 24 h; SM minimal medium
# Experimental: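 Same SeMeCo high-content imaging drug screen: Selleck FDA-approved drugs at 10 µM, 24 h in SM medium, 384-well plates, 3 replicates.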
compound,measurement,value
CC(=O)OCC[N+](C)(C)C [Acetylcholine iodide],imaged cell count per well,27000 ± 2200
O=C1CN(/N=C/c2ccc(-c3ccc([N+](=O)[O-])cc3)o2)C(=O)N1 [Dantrolene sodium],imaged cell count per well,23700 ± 1900
CCCCOc1cc(C(=O)NCCN(CC)CC)c2ccccc2n1 [Dibucaine HCl],imaged cell count per well,25800 ± 4200
COc1cnc(NS(=O)(=O)c2ccc(N)cc2)nc1 [Sulfameter],imaged cell count per well,18800 ± 4600
CC[C@H]1OC(=O)[C@H](C)[C@@H](O[C@H]2C[C@@](C)(OC)[C@@H](O)[C@H](C)O2)[C@H](C)[C@@H](O[C@@H]2O[C@H](C)C[C@H](N(C)C)[C@H]2O)[C@](C)(O)C[C@@H](C)C(=O)[C@H](C)[C@@H](O)[C@]1(C)O [Erythromycin],imaged cell count per well,27200 ± 540
CC(C)C(=O)c1c(C(C)C)nn2ccccc12 [Ibudilast],imaged cell count per well,22800 ± 6700
Nc1ccc(S(=O)(=O)Nc2ncccn2)cc1 [Sulfadiazine],imaged cell count per well,25500 ± 3700
CN(CCN1CCC(OC(=O)Nc2ccccc2-c2ccccc2)CC1)C(=O)c1ccc(CN2CCC(C(N)=O)CC2)cc1 [Revefenacin],imaged cell count per well,29300 ± 2700
CCN1CCCC1CNC(=O)c1cc(S(=O)(=O)CC)c(N)cc1OC (stereo not drawn) [Amisulpride],imaged cell count per well,26700 ± 2600
CCCc1nc(C)c2c(=O)nc(-c3cc(S(=O)(=O)N4CCN(CC)CC4)ccc3OCC)[nH]n12 [Vardenafil HCl Trihydrate],imaged cell count per well,19500 ± 2500
COc1cc([C@@H]2c3cc4c(cc3[C@@H](O[C@@H]3O[C@@H]5CO[C@@H](C)O[C@H]5[C@H](O)[C@H]3O)[C@H]3COC(=O)[C@H]23)OCO4)cc(OC)c1O [Etoposide],imaged cell count per well,23600 ± 2000
CC1(C)S[C@@H]2[C@H](NC(=O)[C@H](N)c3ccc(O)cc3)C(=O)N2[C@H]1C(=O)O [Amoxicillin Sodium],imaged cell count per well,24700 ± 4300
C[C@]1(COc2ccc(N3CCC(Oc4ccc(OC(F)(F)F)cc4)CC3)cc2)Cn2cc([N+](=O)[O-])nc2O1 [Delamanid],imaged cell count per well,29700 ± 3100
Cc1cc(C)nc(O)n1.O=C(Nc1ccc([N+](=O)[O-])cc1)Nc1ccc([N+](=O)[O-])cc1 [Nicarbazin],imaged cell count per well,28000 ± 6400
COc1ccc(CC2c3cc(OC)c(OC)cc3CC[N+]2(C)CCC(=O)OCCCCCOC(=O)CC[N+]2(C)CCc3cc(OC)c(OC)cc3C2Cc2ccc(OC)c(OC)c2)cc1OC (stereo not drawn) [Atracurium Besylate],imaged cell count per well,25100 ± 1500
CC[N+](CC)(CC)CC [Tetraethylammonium bromide],imaged cell count per well,19600 ± 1900
C[C@@H](O)[C@H]1C(=O)N2C(C(=O)O)=C(SCCNC=N)C[C@H]12 [Imipenem],imaged cell count per well,18000 ± 3100
COc1cc(NS(=O)(=O)c2ccc(N)cc2)nc(OC)n1 [SulfadiMethoxine sodium],imaged cell count per well,25300 ± 3900
Nc1c(CC(=O)O)cccc1C(=O)c1ccc(Br)cc1 [Bromfenac Sodium],imaged cell count per well,19100 ± 10000
CC[C@H](C)C(=O)O[C@H]1C[C@H](O)C=C2C=C[C@H](C)[C@H](CC[C@@H](O)C[C@@H](O)CC(=O)O)[C@H]21 [Pravastatin],imaged cell count per well,27700 ± 3200
CO/N=C(/C(=O)N[C@@H]1C(=O)N2C(C(=O)OCOC(=O)C(C)(C)C)=C(C)CS[C@H]12)c1csc(N)n1 [Cefetamet pivoxil hydrochloride],imaged cell count per well,22100 ± 4700
CC(C(O)c1ccc(O)cc1)N1CCC(Cc2ccccc2)CC1 (stereo not drawn) [Ifenprodil Tartrate],imaged cell count per well,27500 ± 5800
CCOC(=O)C1=C(COCCN)NC(C)=C(C(=O)OC)C1c1ccccc1Cl (stereo not drawn) [Amlodipine],imaged cell count per well,20500 ± 1300
C[C@@H]1[C@H](O)[C@@H](C)/C=C/C=C/C=C/C=C/C=C/C=C/C=C/[C@H](O[C@@H]2O[C@H](C)[C@@H](O)[C@H](N)[C@@H]2O)C[C@@H]2O[C@](O)(C[C@@H](O)C[C@@H](O)[C@H](O)CC[C@@H](O)C[C@@H](O)CC(=O)O[C@H]1C)C[C@H](O)[C@H]2C(=O)O [Amphotericin B],imaged cell count per well,2480 ± 660
CCCN[C@H]1CCc2nc(N)sc2C1 [Pramipexole],imaged cell count per well,23900 ± 4500
Cc1ccnc(NS(=O)(=O)c2ccc(N)cc2)n1 [Sulfamerazine],imaged cell count per well,21700 ± 6500
CCCCN(CCCC)CC(O)c1cc(Cl)cc2c1-c1ccc(Cl)cc1/C2=C/c1ccc(Cl)cc1 (stereo not drawn) [Lumefantrine],imaged cell count per well,22300 ± 3900
Cc1cccc(C)c1NC(=O)C1CCCCN1C (stereo not drawn) [Mepivacaine],imaged cell count per well,23300 ± 12000
Oc1c(Cl)cc(Cl)c(Cl)c1Cc1c(O)c(Cl)cc(Cl)c1Cl [Hexachlorophene],imaged cell count per well,3630 ± 640
O=C(c1ccccc1)c1ccc2n1CCC2C(=O)O (stereo not drawn) [Ketorolac],imaged cell count per well,24300 ± 3100
"C[C@@H](CN1CC(=O)NC(=O)C1)N1CC(=O)NC(=O)C1 [Dexrazoxane HCl (ICRF-187, ADR-529)]",imaged cell count per well,26300 ± 6400
CCN(CC)CCOCCOC(=O)C1(c2ccccc2)CCCC1 [Pentoxyverine Citrate],imaged cell count per well,24400 ± 6400
CN1CC(=O)N2[C@H](c3ccc4c(c3)OCO4)c3[nH]c4ccccc4c3C[C@@H]2C1=O [Tadalafil],imaged cell count per well,27100 ± 2900
CCCc1nn(C)c2c(=O)[nH]c(-c3cc(S(=O)(=O)N4CCN(C)CC4)ccc3OCC)nc12 [Sildenafil],imaged cell count per well,32200 ± 7500
CCCC1CC(C(=O)NC(C(C)Cl)C2OC(SC)C(O)C(O)C2O)N(C)C1 (stereo not drawn) [Clindamycin alcoholate],imaged cell count per well,30600 ± 1200
C[C@@H]1NC(=O)[C@@H](N)CNC(=O)[C@H](C2CCNC(=N)N2)NC(=O)/C(=C/NC(N)=O)NC(=O)[C@H](CNC(=O)CC(N)CCCN)NC1=O.N=C1NCC[C@H]([C@@H]2NC(=O)/C(=C/NC(N)=O)NC(=O)[C@H](CNC(=O)C[C@@H](N)CCCN)NC(=O)[C@H](CO)NC(=O)[C@@H](N)CNC2=O)N1 [Capreomycin Sulfate] (H-[Dap]S[Dap](ξβ3hOrn)[ΔAla(Z-3-ureido)][X1]; lactam 1-C),imaged cell count per well,21300 ± 8300
CC[C@H]1OC(=O)C[C@@H](O)[C@H](C)[C@@H](O[C@@H]2O[C@H](C)[C@@H](O[C@H]3C[C@@](C)(O)[C@@H](O)[C@H](C)O3)[C@H](N(C)C)[C@H]2O)[C@@H](CC=O)C[C@@H](C)C(=O)/C=C/C(C)=C/[C@@H]1CO[C@@H]1O[C@H](C)[C@@H](O)[C@@H](OC)[C@H]1OC [Tylosin tartrate],imaged cell count per well,23400 ± 3400
CO[C@@H]1[C@@H](O[C@@H]2O[C@H](C)[C@@H](O[C@H]3C[C@@](C)(O)[C@@H](O)[C@H](C)O3)[C@H](N(C)C)[C@H]2O)[C@@H](CC=O)C[C@@H](C)[C@@H](O[C@H]2CC[C@H](N(C)C)[C@@H](C)O2)/C=C/C=C/C[C@@H](C)OC(=O)C[C@H]1OC(C)=O [Acetylspiramycin (ASPM)],imaged cell count per well,26700 ± 8900
COc1cc(NS(=O)(=O)c2ccc(N)cc2)ncn1 [Sulfamonomethoxine],imaged cell count per well,25400 ± 4800
Cc1cc(=O)n(-c2ccccc2)n1C [Antipyrine],imaged cell count per well,23200 ± 2600
Nc1nc2c(ncn2COC(CO)CO)c(=O)[nH]1 [Ganciclovir],imaged cell count per well,22300 ± 5400
CC1=C(CC(=O)O)c2cc(F)ccc2/C1=C\c1ccc([S+](C)[O-])cc1 (stereo not drawn) [Sulindac],imaged cell count per well,26800 ± 3400
CO[C@@H]1[C@H](OC(=O)/C=C/C=C/C=C/C=C/C(=O)O)CC[C@]2(CO2)[C@H]1[C@@]1(C)O[C@@H]1CC=C(C)C [Fumagillin],imaged cell count per well,24500 ± 2000

# Rewritten bar-delimited: part of the list above
compound | measurement | value
CO[C@@H]1[C@@H](O[C@@H]2O[C@H](C)[C@@H](O[C@H]3C[C@@](C)(O)[C@@H](O)[C@H](C)O3)[C@H](N(C)C)[C@H]2O)[C@@H](CC=O)C[C@@H](C)[C@@H](O[C@H]2CC[C@H](N(C)C)[C@@H](C)O2)/C=C/C=C/C[C@@H](C)OC(=O)C[C@H]1OC(C)=O [Acetylspiramycin (ASPM)] | imaged cell count per well | 26700 ± 8900
COc1cc(NS(=O)(=O)c2ccc(N)cc2)ncn1 [Sulfamonomethoxine] | imaged cell count per well | 25400 ± 4800

# Reference: the supplement of paper PMC8975748
